Consider four substances from article PMC4868323, “Interaction of Toll-Like Receptors with the Molecular Chaperone Gp96 Is Essential for Its Activation of Cytotoxic T Lymphocyte Response” (PLoS ONE, 2016).

Protein sequences, listed by entry. Tags and fused reporters are not part of them. Lines headed by an entry give the natural chain unless they say otherwise; changes in a name come on top. Residues count along the entry.
UniProt P14625, residues 22-803: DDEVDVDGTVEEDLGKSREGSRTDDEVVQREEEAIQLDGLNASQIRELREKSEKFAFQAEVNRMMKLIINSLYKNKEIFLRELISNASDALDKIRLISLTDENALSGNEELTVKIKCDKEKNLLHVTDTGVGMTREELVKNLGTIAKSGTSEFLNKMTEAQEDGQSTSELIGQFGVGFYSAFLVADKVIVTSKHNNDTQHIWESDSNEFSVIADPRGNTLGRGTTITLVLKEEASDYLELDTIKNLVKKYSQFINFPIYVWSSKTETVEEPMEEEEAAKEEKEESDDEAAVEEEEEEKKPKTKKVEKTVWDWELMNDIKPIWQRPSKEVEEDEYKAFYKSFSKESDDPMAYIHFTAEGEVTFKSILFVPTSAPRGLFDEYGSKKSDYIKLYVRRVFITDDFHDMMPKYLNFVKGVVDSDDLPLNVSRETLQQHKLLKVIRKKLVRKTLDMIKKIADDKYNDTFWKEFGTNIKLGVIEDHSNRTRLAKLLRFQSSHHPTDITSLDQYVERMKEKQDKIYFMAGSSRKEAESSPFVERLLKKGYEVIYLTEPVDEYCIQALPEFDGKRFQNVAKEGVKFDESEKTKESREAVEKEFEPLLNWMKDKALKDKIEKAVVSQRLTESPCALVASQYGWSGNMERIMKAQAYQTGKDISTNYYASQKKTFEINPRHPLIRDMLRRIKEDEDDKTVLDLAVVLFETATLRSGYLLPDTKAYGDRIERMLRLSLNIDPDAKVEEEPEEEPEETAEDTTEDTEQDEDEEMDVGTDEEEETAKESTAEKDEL
UniProt Q9QUK6, residues 26-835: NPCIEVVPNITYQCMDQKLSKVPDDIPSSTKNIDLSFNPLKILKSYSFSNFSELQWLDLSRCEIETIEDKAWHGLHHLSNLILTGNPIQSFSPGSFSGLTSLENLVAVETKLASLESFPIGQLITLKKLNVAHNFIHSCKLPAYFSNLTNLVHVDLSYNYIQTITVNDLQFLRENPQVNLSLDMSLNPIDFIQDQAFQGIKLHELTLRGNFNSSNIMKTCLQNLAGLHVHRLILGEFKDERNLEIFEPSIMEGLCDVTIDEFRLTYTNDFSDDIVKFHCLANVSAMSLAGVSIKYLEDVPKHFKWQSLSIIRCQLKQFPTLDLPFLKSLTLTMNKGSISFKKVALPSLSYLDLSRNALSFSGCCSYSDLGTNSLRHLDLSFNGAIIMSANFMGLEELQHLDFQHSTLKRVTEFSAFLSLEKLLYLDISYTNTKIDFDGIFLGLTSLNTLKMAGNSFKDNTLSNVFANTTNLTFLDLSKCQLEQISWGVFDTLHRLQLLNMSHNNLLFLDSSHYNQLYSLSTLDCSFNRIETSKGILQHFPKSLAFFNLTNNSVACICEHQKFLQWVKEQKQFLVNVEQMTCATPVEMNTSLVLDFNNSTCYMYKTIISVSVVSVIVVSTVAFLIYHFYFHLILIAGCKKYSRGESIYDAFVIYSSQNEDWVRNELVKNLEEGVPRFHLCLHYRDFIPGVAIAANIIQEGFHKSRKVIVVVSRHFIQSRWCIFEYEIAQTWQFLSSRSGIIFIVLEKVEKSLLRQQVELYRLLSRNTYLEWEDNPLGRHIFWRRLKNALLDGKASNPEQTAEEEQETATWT
UniProt O00206, residues 24-839: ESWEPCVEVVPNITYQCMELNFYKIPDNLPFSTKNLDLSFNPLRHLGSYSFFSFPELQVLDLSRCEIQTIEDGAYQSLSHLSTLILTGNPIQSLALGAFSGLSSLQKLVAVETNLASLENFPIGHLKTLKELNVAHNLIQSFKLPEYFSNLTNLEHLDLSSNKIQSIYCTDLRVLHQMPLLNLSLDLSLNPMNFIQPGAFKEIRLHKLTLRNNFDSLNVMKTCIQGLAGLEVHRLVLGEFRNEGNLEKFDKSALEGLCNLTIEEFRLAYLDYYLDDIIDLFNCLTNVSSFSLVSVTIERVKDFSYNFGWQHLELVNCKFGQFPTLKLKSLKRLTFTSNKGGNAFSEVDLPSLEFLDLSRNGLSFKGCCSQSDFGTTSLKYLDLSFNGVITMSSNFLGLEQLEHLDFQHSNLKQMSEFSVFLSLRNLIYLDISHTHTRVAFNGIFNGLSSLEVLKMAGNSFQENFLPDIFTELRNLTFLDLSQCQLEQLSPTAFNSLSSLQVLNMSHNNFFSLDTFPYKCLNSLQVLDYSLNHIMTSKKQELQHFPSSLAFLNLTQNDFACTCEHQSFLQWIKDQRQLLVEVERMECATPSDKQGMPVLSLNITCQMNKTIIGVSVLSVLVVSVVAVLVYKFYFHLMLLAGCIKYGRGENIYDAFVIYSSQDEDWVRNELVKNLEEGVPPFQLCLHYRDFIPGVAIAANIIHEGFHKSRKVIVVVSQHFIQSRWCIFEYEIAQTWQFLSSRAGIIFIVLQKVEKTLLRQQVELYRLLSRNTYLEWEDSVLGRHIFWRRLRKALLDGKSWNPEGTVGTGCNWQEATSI
UniProt Q9QUN7, residues 25-784: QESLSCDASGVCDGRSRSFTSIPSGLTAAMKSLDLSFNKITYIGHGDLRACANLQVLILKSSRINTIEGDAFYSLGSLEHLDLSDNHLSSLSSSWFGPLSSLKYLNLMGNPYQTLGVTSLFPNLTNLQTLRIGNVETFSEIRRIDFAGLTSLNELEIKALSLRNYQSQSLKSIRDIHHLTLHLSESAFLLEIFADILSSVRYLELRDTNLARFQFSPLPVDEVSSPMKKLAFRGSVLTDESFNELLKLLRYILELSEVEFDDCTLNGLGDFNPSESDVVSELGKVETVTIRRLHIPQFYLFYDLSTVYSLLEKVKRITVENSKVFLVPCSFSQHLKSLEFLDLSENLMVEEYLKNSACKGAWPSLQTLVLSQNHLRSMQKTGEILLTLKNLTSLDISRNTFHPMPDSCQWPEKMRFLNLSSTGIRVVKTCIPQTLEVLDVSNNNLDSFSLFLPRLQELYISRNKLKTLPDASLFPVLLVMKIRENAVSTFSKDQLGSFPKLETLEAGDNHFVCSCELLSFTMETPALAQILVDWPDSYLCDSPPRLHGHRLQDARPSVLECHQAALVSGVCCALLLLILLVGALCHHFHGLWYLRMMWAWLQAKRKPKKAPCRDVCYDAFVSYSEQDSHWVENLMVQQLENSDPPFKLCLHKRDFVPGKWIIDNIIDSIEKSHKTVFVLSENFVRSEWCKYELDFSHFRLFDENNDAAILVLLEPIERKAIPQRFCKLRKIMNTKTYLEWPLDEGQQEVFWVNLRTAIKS
UniProt O60603: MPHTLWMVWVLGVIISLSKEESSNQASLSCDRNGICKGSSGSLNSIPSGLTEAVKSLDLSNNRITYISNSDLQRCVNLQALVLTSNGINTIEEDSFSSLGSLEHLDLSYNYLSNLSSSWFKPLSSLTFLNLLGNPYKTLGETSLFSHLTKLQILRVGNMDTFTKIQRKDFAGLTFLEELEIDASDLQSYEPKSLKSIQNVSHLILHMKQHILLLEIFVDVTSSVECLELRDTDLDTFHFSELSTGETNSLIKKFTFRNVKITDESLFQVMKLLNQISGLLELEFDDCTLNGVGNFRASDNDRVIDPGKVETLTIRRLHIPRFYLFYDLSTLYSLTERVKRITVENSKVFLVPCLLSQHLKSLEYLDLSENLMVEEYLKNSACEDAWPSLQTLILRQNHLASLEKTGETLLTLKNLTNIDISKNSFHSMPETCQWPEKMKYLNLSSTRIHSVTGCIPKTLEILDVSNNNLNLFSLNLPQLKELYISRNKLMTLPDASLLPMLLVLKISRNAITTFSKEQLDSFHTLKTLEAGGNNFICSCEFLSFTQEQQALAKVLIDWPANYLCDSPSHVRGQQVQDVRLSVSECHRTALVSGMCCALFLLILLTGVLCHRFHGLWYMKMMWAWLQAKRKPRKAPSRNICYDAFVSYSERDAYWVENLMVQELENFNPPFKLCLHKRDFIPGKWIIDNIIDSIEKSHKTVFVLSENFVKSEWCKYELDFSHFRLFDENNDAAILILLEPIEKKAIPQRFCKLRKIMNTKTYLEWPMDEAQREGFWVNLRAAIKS

No constants are given. Whether binding was seen depends on the method and setting. For some of these results: In cells and extracts the contact can be indirect. Some entries that bind do so weakly or less than the wild type.

In assay [1] the target is recombinant wild-type gp96 (gp96-wt), His-tagged (human) (UniProt P14625). In words: co-IP; Raw264.7 cells or human macrophage cells incubated with 100 μg/ml purified His-tagged gp96 at 4°C for 4 h; cell lysates precipitated with anti-His Abs or control Ab and protein G beads; TLR2 or TLR4 detected by Western blotting; only the target purified.
The target in assay [2] is TLR4, endogenous in RAW 264.7 macrophage cells (mouse (endogenous in RAW 264.7)) (UniProt Q9QUK6). In words: flow cytometry on cells; FITC-labelled gp96 (100 μg/ml, 4°C, 4 h) on RAW 264.7 cells, HEK293 cells or human macrophage cells; excessive anti-TLR2 or TLR4 Abs added for blocking; only the binder purified. In general terms: Flow cytometry measures light scatter and fluorescence of single cells or particles in a stream.

For assay [3], the target named is TLR4, endogenous in primary human macrophage cells (human (endogenous in primary macrophage cells)) (UniProt O00206). The assay is described as above.
Assay [4] deals with TLR2, endogenous in RAW 264.7 macrophage cells (mouse (endogenous in RAW 264.7)) (UniProt Q9QUN7). The assay is described as above.
In assay [5] the target is TLR2, endogenous in primary human macrophage cells (human (endogenous in primary macrophage cells)) (UniProt O60603). The assay is described as above.

As to “TLR2, endogenous in primary human macrophage cells (from UniProt O60603 21-784) (receptor)”, the binding result in assay [1] was “binds”.
The same measure, in the same setting: with “TLR4, endogenous in RAW 264.7 macrophage cells (from UniProt Q9QUK6 26-835) (receptor)” the entry was “binds”.
Regarding “recombinant wild-type gp96 (gp96-wt), His-tagged (from UniProt P14625 22-803)”, the binding entry in assay [2], in assay [3], in assay [4] and in assay [5] was “binds” throughout.
Regarding “TLR4, endogenous in primary human macrophage cells (from UniProt O00206 24-839) (receptor)”, in assay [1], the binding result is on record as “binds”.
